Measurements from paper doi:10.1101/821637.
Results are given in words; binding and its absence hold for the method and conditions named. For some assays here: A result given as binding can be weak or reduced; the word gives no strength. For some assays here: Binding seen in cells or lysates may run through a third protein. For some assays here: Tags and fused reporters may be left off the sequences shown.

Tests used:
[1] = target: T1, Myc-tagged mouse ECH1 construct (ECH1-Myc) (mouse) (UniProt O35459); test: co-IP
T1 sequence: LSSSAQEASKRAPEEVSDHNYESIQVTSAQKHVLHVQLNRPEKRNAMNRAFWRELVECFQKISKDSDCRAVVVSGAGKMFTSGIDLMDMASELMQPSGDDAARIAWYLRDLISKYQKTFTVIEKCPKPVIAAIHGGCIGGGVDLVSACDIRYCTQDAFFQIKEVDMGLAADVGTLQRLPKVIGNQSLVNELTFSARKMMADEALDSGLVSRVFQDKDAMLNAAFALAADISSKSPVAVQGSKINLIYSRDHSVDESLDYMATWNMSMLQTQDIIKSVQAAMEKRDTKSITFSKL

[2] = target: UCP3 hydrophilic domain 6 (HD6) bait; test: two-hybrid
[3] = target: UCP3 hydrophilic domain 7 (HD7) bait; test: two-hybrid
[4] = target: UCP3 hydrophilic domain 2 (HD2) bait; test: two-hybrid
[5] = target: UCP3 hydrophilic domain 3 (HD3) bait; test: two-hybrid
[6] = target: UCP3 hydrophilic domain 1 (HD1) bait; test: two-hybrid
[7] = target: UCP3 hydrophilic domain 4 (HD4) bait; test: two-hybrid
[8] = target: Myc-tagged human adenine nucleotide translocase (hANT-myc) (human); test: co-IP

V5-tagged UCP3 truncation mutant lacking hydrophilic domain 4 (ΔHD4) (from UniProt P56501)
binding [1]: binds

B1: full length ECH1 (yeast two-hybrid) (enzyme, UniProt Q13011 1-328)
chain: MAAGIVASRRLRDLLTRRLTGSNYPGLSISLRLTGSSAQEEASGVALGEAPDHSYESLRVTSAQKHVLHVQLNRPNKRNAMNKVFWREMVECFNKISRDADCRAVVISGAGKMFTAGIDLMDMASDILQPKGDDVARISWYLRDIITRYQETFNVIERCPKPVIAAVHGGCIGGGVDLVTACDIRYCAQDAFFQVKEVDVGLAADVGTLQRLPKVIGNQSLVNELAFTARKMMADEALGSGLVSRVFPDKEVMLDAALALAAEISSKSPVAVQSTKVNLLYSRDHSVAESLNYVASWNMSMLQTQDLVKSVQATTENKELKTVTFSKL
binding [2]: no binding | binding [3]: no binding | binding [4]: no binding | binding [5]: binds | binding [6]: binds | binding [7]: binds

B2: V5-tagged mouse UCP3 construct (UCP3-V5) (protein, UniProt P56501 1-308)
chain: MVGLQPSEVPPTTVVKFLGAGTAACFADLLTFPLDTAKVRLQIQGENPGAQSVQYRGVLGTILTMVRTEGPRSPYSGLVAGLHRQMSFASIRIGLYDSVKQFYTPKGADHSSVAIRILAGCTTGAMAVTCAQPTDVVKVRFQAMIRLGTGGERKYRGTMDAYRTIAREEGVRGLWKGTWPNITRNAIVNCAEMVTYDIIKEKLLESHLFTDNFPCHFVSAFGAGFCATVVASPVDVVKTRYMNAPLGRYRSPLHCMLKMVAQEGPTAFYKGFVPSFLRLGAWNVMMFVTYEQLKRALMKVQVLRESPF
binding [8]: no binding
